Results published in patent publication US7297505B2, “Use of MDCK cell line to predict corneal penetration of drugs” (Alcon, Inc., priority 2004, dated 2007).

System: MDCK(MDR) monolayers
Details: MDCK-MDR1
From the text: The present invention is directed to the use of a new in vitro model for evaluating the ability of a drug molecule to penetrate the cornea. The model involves the use of MDCK cell permeability values to predict the ability of drug molecules to penetrate the cornea. The MDCK permeability values of drug molecules can be determined by means of known methods, such as the methods described in the following scientific articles: • 1. Horio, M, Pastan, I, Gottesman, M M, and Handler, J S. Transepithelial transport of vinblastine by kidney-derived cell lines. Application of a new kinetic model to estimate in situ Km of the pump. […] Pan, B F, Dutt, A, and Nelson, J A. Enhanced transepithelial flux of cimetidine by Madin-Darby canine kidney cells overexpressing human P-glycoprotein. […]
In vitro MDCK cell permeability. Permeability and transport studies were conducted and the data were analyzed at Absorption Systems, Exton, Pa., using methods previously described.^12,13 MDCK(MDR) monolayers were grown to confluence on collagen-coated, microporous, polycarbonate membranes in 12-well Costar Transwell plates. To ensure monolayer integrity, the trans epithelial electrical resistance (TEER) was measured. […] Lucifer Yellow permeability was measured for each monolayer after the experiment, to ensure that the cell monolayer integrity and viability was not compromised by the test article. […]

MDCK^2: 1.96
SMILES: CC(C)NCC(O)COc1ccc(CC(N)=O)cc1 (stereo not shown) [Atenolol]
